{"sequences": {"note": "Amino acid sequences for entries named in this document (tags omitted). A change or cut given only in a name is not applied to a line headed by its entry.", "UniProt P51450": "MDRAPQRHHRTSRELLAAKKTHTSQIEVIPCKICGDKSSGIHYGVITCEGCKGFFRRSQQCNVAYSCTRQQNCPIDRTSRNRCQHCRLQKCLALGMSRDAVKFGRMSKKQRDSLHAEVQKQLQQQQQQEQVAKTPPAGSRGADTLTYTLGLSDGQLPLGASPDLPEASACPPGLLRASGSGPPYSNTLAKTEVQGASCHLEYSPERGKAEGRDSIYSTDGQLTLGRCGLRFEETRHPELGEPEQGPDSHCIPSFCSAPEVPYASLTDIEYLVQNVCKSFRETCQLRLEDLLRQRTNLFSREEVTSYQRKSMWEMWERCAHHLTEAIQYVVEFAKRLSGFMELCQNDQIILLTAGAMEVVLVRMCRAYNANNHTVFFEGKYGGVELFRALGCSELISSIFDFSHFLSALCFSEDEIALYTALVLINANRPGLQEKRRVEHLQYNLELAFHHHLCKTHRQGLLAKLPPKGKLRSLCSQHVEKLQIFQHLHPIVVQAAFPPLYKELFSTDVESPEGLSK"}, "source": "PubChem BioAssay AID2551", "about": "(National Center for Advancing Translational Sciences (NCATS), 2010)", "note": "Values joined by “and” are separate entries in the source; they are usually repeats but may differ in a detail not shown here. Identical values can stand only once. The whole screen tested about 310,000 compounds, of which about 17,000 (5.5%) were called active. The shares of active, inactive and inconclusive entries below differ from those in the screen. The call rests on the fitted dose curve; in most records, active means well fitted inhibition curve with a large enough effect; inconclusive means small, poorly fitted or top-dose-only effect, or effect the other way; inactive means no such curve, though single readings can be large or run the other way. Where the call is inconclusive, the potency comes from a doubtful curve fit. Potency means the concentration at half of the fitted maximal effect.", "data": [{"target": "Nuclear receptor ROR-gamma (Mus musculus) (UniProt P51450)", "assay": "qHTS for inhibitors of ROR gamma transcriptional activity; further: nearly all actives have a fitted effect of over 60% in size", "settings": "Drosophila S2 Gal4-RORgamma UAS-luciferase reporter, 20 h; series mostly up to 53.6 µM", "how_it_was_run": "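Luminescence from a UAS-regulated Photinus luciferase reporter in stably transfected Drosophila Schneider cells is measured; decreased signal marks ROR gamma inhibition. Fusion expression is induced by 700 uM copper sulfate for 20 hr.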", "values": [{"smiles": "O=C(c1ccc([N+](=O)[O-])cc1)N(Cc1ccc(Br)cc1)N1C(=O)CCCC1=O", "Potency": "inactive"}, {"smiles": "COc1ccc(-c2nnc(NC(=O)C3CCCO3)s2)cc1", "note": "(configuration not stated)", "Potency": "inconclusive: 35.5 µM [inhibitor, single point]"}, {"smiles": "C=C1C(=O)C=C2CN(C(=O)c3ccccc3)[C@@](Cc3ccc(OC)cc3)(C(=O)OC)[C@@H]12", "Potency": "active: 3.98 µM"}, {"smiles": "Oc1oc(-c2ccccc2)nc1/C=N/c1nccs1", "Potency": "active: 15.8 µM"}, {"smiles": "Cc1noc(/C=C/Nc2ccc(F)cc2F)c1[N+](=O)[O-]", "Potency": "inconclusive: 31.6 µM [inhibitor, single point]"}, {"smiles": "CCOC(=O)N/C(N)=N/c1nc2ccccc2s1", "Potency": "inconclusive: 0.447 µM [activator, single point]"}, {"smiles": "Cc1cccc(C(=O)O/N=C(\\N)c2cccc([N+](=O)[O-])c2)c1", "Potency": "inconclusive: 14.1 µM [inhibitor, single point]"}, {"smiles": "Cc1ccc(-n2c(O)c(/C=N/Nc3ccc(S(=O)(=O)N4CCOCC4)cc3[N+](=O)[O-])c3ccccc3c2=O)c(C)c1", "Potency": "inconclusive: 25.1 µM [inhibitor, single point]"}, {"smiles": "O=C(NNS(=O)(=O)c1ccc([N+](=O)[O-])cc1)C(=O)Nc1cccc(C(=O)O)c1", "Potency": "inactive"}, {"smiles": "COc1ccc(C(=O)Nc2nnc(C3=COCCO3)o2)cc1OC", "Potency": "active: 1.58 µM"}, {"smiles": "Cc1ccc(CNC(=O)c2cc(=O)c3ccccc3o2)cc1", "Potency": "inconclusive: 20 µM [activator, single point]"}, {"smiles": "CC1CCCC(NC(=O)CCCn2c(=S)[nH]c3ccccc3c2=O)C1C", "note": "(configuration not stated)", "Potency": "active: 10 µM"}, {"smiles": "COc1ccc(N2C(=O)CC(N3CCC(O)(c4cccc(C(F)(F)F)c4)CC3)C2=O)cc1", "note": "(configuration not stated)", "Potency": "active: 2.51 µM"}, {"smiles": "CCOC(=O)C1CCC2(CC1)C(C#N)=C(N)Oc1n[nH]c(C)c12", "note": "(configuration not stated)", "Potency": "inactive"}, {"smiles": "COc1cccc(N(CC(=O)NC(C)c2ccccc2)S(C)(=O)=O)c1", "note": "(configuration not stated)", "Potency": "inconclusive: 10 µM [activator, partial curve]"}, {"smiles": "Cc1oc2cc3oc(=O)c(CCC(=O)NCCCN4CCOCC4)c(C)c3cc2c1C", "Potency": "inactive"}, {"smiles": "C[N+]1(C2CCC3CCCC2C3O)CCCCC1", "note": "(configuration not stated)", "Potency": "inactive"}, {"smiles": "O=S(=O)(NC1CCCC1)c1ccc(S(=O)(=O)N2CCc3ccccc32)cc1", "Potency": "inconclusive: 3.16 µM [activator, partial curve]"}, {"smiles": "CCOC(=O)c1cc(-c2ccc(OC(F)F)cc2)nc2nc(SC)[nH]c(=O)c12", "Potency": "inconclusive: 31.6 µM [activator, single point]"}, {"smiles": "O=C1/C(=C/c2cccs2)N=C(c2cccs2)N1Nc1ccccc1", "Potency": "inactive"}, {"smiles": "COc1ccc(C(C(=O)NC2CCCCC2)N(C(=O)c2ccco2)c2ccccc2C(C)=O)cc1", "note": "(configuration not stated)", "Potency": "inconclusive: 1.58 µM [activator, partial curve]"}, {"smiles": "Cc1ccc(SCc2nc(-c3ccccn3)no2)cc1", "Potency": "inactive"}, {"smiles": "Cc1ccc(CN2CCN(Cc3nc4c(s3)CCCC4)CC2CCO)cc1", "note": "(configuration not stated)", "Potency": "inconclusive: 35.5 µM [inhibitor, single point]"}, {"smiles": "O=C(Nc1ccc(F)cc1F)c1ccc2c(c1)OCCO2", "Potency": "inconclusive: 2.51 µM [inhibitor, partial curve]"}, {"smiles": "O=C(CCC1CCCCC1)Nc1ccccc1O", "Potency": "inconclusive: 6.31 µM [activator, single point]"}, {"smiles": "Fc1ccc(NC(=S)N2CCCN(c3ccc(C(F)(F)F)cn3)CC2)c(F)c1", "Potency": "inconclusive: 35.5 µM [inhibitor, single point]"}, {"smiles": "Cc1cc(C(=O)N/N=C/C=C/c2ccccc2[N+](=O)[O-])c(C)o1", "Potency": "inconclusive: 17.8 µM [inhibitor, single point]"}, {"smiles": "Cn1c(-c2sccc2OCc2cccc(C(F)(F)F)c2)n[nH]c1=S", "Potency": "active: 4.47 µM"}, {"smiles": "CCc1nnc(NC(=O)CSc2nccn2-c2cccc(C)c2)s1", "Potency": "inconclusive: 20 µM [inhibitor, single point]"}, {"smiles": "CN(C)c1ccc(/C=N/OC(=O)Nc2ccccc2)cc1", "Potency": "inconclusive: 5.62 µM [inhibitor, partial curve, poor fit]"}, {"smiles": "Cc1cc(C)cc(N(CC(=O)Nc2cccc(C)n2)S(=O)(=O)c2c(C)noc2C)c1", "Potency": "inconclusive: 2 µM [inhibitor, full curve, poor fit]"}, {"smiles": "COc1cc2c(cc1OC)CN(C(=S)Nc1ccccc1Cl)CC2", "Potency": "inconclusive: 35.5 µM [inhibitor, single point]"}, {"smiles": "CCn1c(C)c(C(C)=O)c(NCc2ccccc2)nc1=S", "Potency": "inconclusive: 12.6 µM [inhibitor, partial curve]"}, {"smiles": "COc1cc(OC)cc(N(C(=O)C2COc3ccccc3O2)C(C(=O)NC2CCCCC2)c2ccc(O)cc2)c1", "note": "(configuration not stated)", "Potency": "inactive"}, {"smiles": "Cc1nnc(NC(=O)c2ccc3ccccc3n2)s1", "Potency": "active: 2.82 µM"}, {"smiles": "COc1ccc2oc(=O)cc(-c3cc4cccc(OC)c4o3)c2c1", "Potency": "inactive"}, {"smiles": "CN(C)Cc1c(-c2ccc(Cl)cc2)nc2ccccn12", "Potency": "inactive"}, {"smiles": "CC(C)c1ccc(-n2ccnc2SCC(=O)O)cc1", "Potency": "inconclusive: 14.1 µM [activator, single point]"}, {"smiles": "COc1ccc(Cc2n[nH]c(=S)n2Cc2ccccc2)cc1Cl", "Potency": "inactive"}, {"smiles": "CCc1ccc(N2CC(C(=O)N/N=C/c3cc([N+](=O)[O-])ccc3O)CC2=O)cc1", "note": "(configuration not stated)", "Potency": "active: 4.47 µM"}, {"smiles": "COc1cc(C(=O)NNC2=CC(=O)CC(C)(C)C2)cc(OC)c1OC", "Potency": "inactive"}, {"smiles": "COc1ccc(C(=O)NC2CCCN(Cc3ccc(Cl)cc3)C2)c(OC)c1", "note": "(configuration not stated)", "Potency": "inconclusive: 12.6 µM [activator, partial curve, poor fit]"}, {"smiles": "Nc1ccccc1SCC1CSc2nc3ccccc3c(=O)n21", "note": "(configuration not stated)", "Potency": "inconclusive: 35.5 µM [activator, single point]"}, {"smiles": "CNC[C@H](O)c1ccc(O)c(O)c1", "Potency": "inactive and inconclusive: 562 nM [inhibitor, full curve, poor fit]"}, {"smiles": "O=C(O)CC/C(=N/NC(=O)c1ccc(-c2ccccc2)cc1)c1ccccc1", "Potency": "inconclusive: 7.94 µM [inhibitor, partial curve, poor fit]"}, {"smiles": "COc1ccc([N+](=O)[O-])cc1N(CC(O)Cn1nnc2ccccc21)S(=O)(=O)c1ccc(C)cc1", "note": "(configuration not stated)", "Potency": "inconclusive: 11.2 µM [activator, partial curve]"}, {"smiles": "COC(=O)c1ccccc1SC1CC(=O)N(c2cccc(C)c2)C1=O", "note": "(configuration not stated)", "Potency": "inconclusive: 35.5 µM [inhibitor, single point]"}, {"smiles": "Cc1ccc(CC(=O)OCCNC(=O)c2cccnc2)cc1", "Potency": "inactive"}, {"smiles": "C=CCN1CCN(C(=O)CCCc2ccccc2)CC1", "Potency": "active: 5.62 µM"}, {"smiles": "O=C(NCCc1ccccc1)/C(=C\\c1ccc([N+](=O)[O-])cc1)NC(=O)c1ccco1", "Potency": "inconclusive: 3.98 µM [activator, partial curve]"}, {"smiles": "COc1ccc(OC)c2c1cc(C(=O)N[C@@H](Cc1ccccc1)C(=O)O)n2C", "Potency": "inactive"}, {"smiles": "COc1ccc(NC(=S)Nc2ccc3nsnc3c2)cc1", "Potency": "active: 10 µM"}, {"smiles": "CCC(CC)c1nnc(NC(=O)c2ccc(N3CCCCC3)c([N+](=O)[O-])c2)s1", "Potency": "inconclusive: 25.1 µM [inhibitor, single point]"}, {"smiles": "O=C(NCCCn1ccnc1)c1nn2c(C(F)(F)F)cc(-c3ccc(Br)cc3)nc2c1Cl", "Potency": "inconclusive: 3.55 µM [inhibitor, single point]"}, {"smiles": "O=C(NCc1ccco1)c1cc(Cl)nc(Cl)c1", "Potency": "inconclusive: 35.5 µM [activator, single point]"}, {"smiles": "CCCCOc1ccc(C(=O)Nc2cc(C)c(OCC(=O)N3CCOCC3)c(C)c2)cc1", "Potency": "inconclusive: 0.1 µM [activator, full curve, poor fit]"}, {"smiles": "COc1ccc(-n2c(SCCC#N)nnc2-c2cc(Cl)ccc2OC)cc1Cl", "Potency": "inactive"}, {"smiles": "O=C(Nc1ccccc1O)c1ccc(C(=O)c2ccccc2)o1", "Potency": "inconclusive: 10 µM [activator, partial curve]"}, {"smiles": "c1ccc2c(c1)OCC(c1nn3c(Cn4nnc5ccccc54)nnc3s1)O2", "note": "(configuration not stated)", "Potency": "inconclusive: 35.5 µM [inhibitor, single point]"}, {"smiles": "CC(=O)c1ccc(N2CCN(C(=O)CCCn3c(=O)[nH]c4ccc(Br)cc4c3=O)CC2)cc1", "Potency": "inconclusive: 10 µM [activator, partial curve, poor fit]"}, {"smiles": "Cc1nc2ccccc2n1CCCOc1ccccc1", "Potency": "inconclusive: 8.91 µM [inhibitor, single point]"}, {"smiles": "Cc1ccc(CSc2nc3sc(C)c(C)c3c(=O)n2Cc2ccco2)cc1", "Potency": "inconclusive: 22.4 µM [inhibitor, single point]"}, {"smiles": "O=C(O)CCc1ccc(-c2cccs2)n1CCc1ccccc1", "Potency": "inconclusive: 35.5 µM [inhibitor, single point]"}, {"smiles": "COc1ccc(-c2csc(Nc3ncccc3C)n2)cc1", "Potency": "inconclusive: 3.55 µM [inhibitor, partial curve]"}, {"smiles": "Cn1c2ccc(F)cc2c2ncn(CCCN(CCO)CCO)c(=O)c21", "Potency": "inactive"}, {"smiles": "COc1cc(CNCCc2ccccc2)ccc1OCc1ccc(Cl)nc1", "Potency": "inactive"}, {"smiles": "C=C(C)Cn1c(C2CC(=O)N(Cc3ccccc3)C2)nc2ccccc21", "note": "(configuration not stated)", "Potency": "inconclusive: 5.62 µM [inhibitor, single point]"}, {"smiles": "CCC(=O)NC(c1ccc(OC)c(OC)c1)c1cc(Cl)c2cccnc2c1O", "note": "(configuration not stated)", "Potency": "inactive"}, {"smiles": "COc1ccc(CN2C(=O)CS(=O)CC2=O)cc1OC", "Potency": "inconclusive: 0.708 µM [activator, single point]"}, {"smiles": "CN1CCN(c2ccc(Cl)cc2NC(=O)c2ccc([N+](=O)[O-])cc2)CC1", "Potency": "inconclusive: 35.5 µM [inhibitor, single point]"}, {"smiles": "COc1cc(C=O)ccc1Oc1nc(Nc2ccc(F)cc2F)nc(N2CCOCC2)n1", "Potency": "inactive"}, {"smiles": "O=C(CSC1=NNC(c2ccccn2)S1)Nc1ccc(C(F)(F)F)cc1", "note": "(configuration not stated)", "Potency": "active: 3.16 µM"}]}]}
